Reference: US5508437A (Hoffmann-La Roche Inc., priority 1993, dated 1996)

Assays:
[1] = solid-phase peptide synthesis; settings: for crude mass / isolated mass / isolated yield: whole synthesis; for isolated yield: scale of the general procedure 6 g of Boc-Phe-PAM resin
[2] = general procedure: Fmoc solid-phase peptide synthesis; PAL; DCC/HOBt; settings: whole synthesis
[3] = Boc solid-phase peptide synthesis; BHA; DCC/HOBt; settings: whole synthesis
[4] = general procedure: Fmoc solid-phase peptide synthesis; PAL resin; DCC/HOBt; settings: whole synthesis

Row | Substance | step yield ([1]; late stage modification step) [%] | crude mass [1] [mg] | isolated mass [1] | isolated yield [1] [%] | crude mass [2] [mg] | crude mass [3] [mg] | crude mass [4] [mg]
1 | PEPTIDE1{[ac].[D-Phe(4-CH2COOEt)].M.G.W.M.[Asp(OEt)].F.[am]}$$$$V2.0 | 49 |  |  |  |  |  | 
2 | PEPTIDE1{[ac].[Phe(4-CH2CH2COOH)].M.G.W.M.D.F.[am]}$$$$V2.0 |  | 831 | 17 mg | 29 |  |  | 
3 | PEPTIDE1{[desNH2-Phe(4-CH2COOH)].M.G.W.M.D.[NMePhe].[am]}$$$$V2.0 |  |  | 12 mg | 7.2 | 268 |  | 
4 | PEPTIDE1{[desNH2-Phe(4-CH2COOH)].[Nle].G.W.[Nle].D.[NMePhe].[am]}$$$$V2.0 |  |  | 10 mg | 6.2 | 240 |  | 
5 | PEPTIDE1{[desNH2-Phe(4-tetrazole)].K.G.W.M.D.[NMePhe].[am]}$PEPTIDE1,PEPTIDE1,2:R3-6:R3$$$V2.0 |  | 439 | 15 mg | 13.7 |  |  | 
6 | PEPTIDE1{[desaminoPhe(4-CH2-tetrazole)].[Nle].G.W.[Nle].D.[NMePhe].[am]}$$$$V2.0 |  |  | 16 mg | 17.7 |  | 400 | 
7 | PEPTIDE1{[desaminoPhe(4-CH2COOH)].M.G.W.M.D.F.[am]}$$$$V2.0 |  | 733 | 8 mg | 38 |  |  | 
8 | PEPTIDE1{[desaminoPhe(4-CH2COOH)].[Nle].[dA].W.[Nle].D.[NMePhe].[am]}$$$$V2.0 |  |  | 20 (12.1%) mg | 12.1 |  |  | 300
9 | PEPTIDE1{[desaminoPhe(4-tetrazole)].M.G.W.M.D.F.[am]}$$$$V2.0 |  |  | 15 mg | 10.8 |  | 340 | 

Some peptides are written in HELM: one residue between dots, names in brackets for other building blocks, links after the first $.
